Reference: publication PMC11508090
Results are given in words; binding and its absence hold for the method and conditions named. In cells and extracts the contact can be indirect. These calls come from enrichment with a bait or labelling near it, and not all partners need be listed. For some assays here: A no says only that the protein was not detected with the bait.

T1: Mlh3-TurboID (S. cerevisiae) (UniProt Q12083)
T1 sequence: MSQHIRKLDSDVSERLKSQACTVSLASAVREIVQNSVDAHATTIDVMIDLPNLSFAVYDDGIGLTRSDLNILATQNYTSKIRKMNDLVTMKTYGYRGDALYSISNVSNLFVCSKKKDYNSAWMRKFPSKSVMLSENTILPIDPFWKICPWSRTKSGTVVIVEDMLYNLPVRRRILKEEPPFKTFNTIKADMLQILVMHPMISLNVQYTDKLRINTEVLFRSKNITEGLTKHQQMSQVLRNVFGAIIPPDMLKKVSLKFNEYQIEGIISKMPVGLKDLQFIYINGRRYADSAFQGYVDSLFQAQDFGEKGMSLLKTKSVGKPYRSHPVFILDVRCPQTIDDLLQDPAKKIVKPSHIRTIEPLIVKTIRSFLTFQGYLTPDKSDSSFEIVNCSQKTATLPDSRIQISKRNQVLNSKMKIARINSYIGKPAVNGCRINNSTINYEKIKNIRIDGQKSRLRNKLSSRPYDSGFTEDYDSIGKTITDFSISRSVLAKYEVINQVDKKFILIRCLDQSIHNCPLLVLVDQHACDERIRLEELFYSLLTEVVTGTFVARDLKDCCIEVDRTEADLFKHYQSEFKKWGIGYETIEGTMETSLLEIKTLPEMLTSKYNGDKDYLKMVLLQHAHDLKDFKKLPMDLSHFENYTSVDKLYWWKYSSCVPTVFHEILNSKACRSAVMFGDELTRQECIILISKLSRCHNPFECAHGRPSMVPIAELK

T2: Spo16-TurboID (S. cerevisiae) (UniProt P17122)
T2 sequence: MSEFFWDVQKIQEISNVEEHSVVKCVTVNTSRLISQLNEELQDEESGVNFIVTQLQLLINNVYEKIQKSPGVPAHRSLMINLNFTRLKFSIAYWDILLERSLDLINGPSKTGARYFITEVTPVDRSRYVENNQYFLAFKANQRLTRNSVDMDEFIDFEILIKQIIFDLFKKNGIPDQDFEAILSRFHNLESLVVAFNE

T3: Zip2-TurboID (S. cerevisiae) (UniProt P53061)
T3 sequence: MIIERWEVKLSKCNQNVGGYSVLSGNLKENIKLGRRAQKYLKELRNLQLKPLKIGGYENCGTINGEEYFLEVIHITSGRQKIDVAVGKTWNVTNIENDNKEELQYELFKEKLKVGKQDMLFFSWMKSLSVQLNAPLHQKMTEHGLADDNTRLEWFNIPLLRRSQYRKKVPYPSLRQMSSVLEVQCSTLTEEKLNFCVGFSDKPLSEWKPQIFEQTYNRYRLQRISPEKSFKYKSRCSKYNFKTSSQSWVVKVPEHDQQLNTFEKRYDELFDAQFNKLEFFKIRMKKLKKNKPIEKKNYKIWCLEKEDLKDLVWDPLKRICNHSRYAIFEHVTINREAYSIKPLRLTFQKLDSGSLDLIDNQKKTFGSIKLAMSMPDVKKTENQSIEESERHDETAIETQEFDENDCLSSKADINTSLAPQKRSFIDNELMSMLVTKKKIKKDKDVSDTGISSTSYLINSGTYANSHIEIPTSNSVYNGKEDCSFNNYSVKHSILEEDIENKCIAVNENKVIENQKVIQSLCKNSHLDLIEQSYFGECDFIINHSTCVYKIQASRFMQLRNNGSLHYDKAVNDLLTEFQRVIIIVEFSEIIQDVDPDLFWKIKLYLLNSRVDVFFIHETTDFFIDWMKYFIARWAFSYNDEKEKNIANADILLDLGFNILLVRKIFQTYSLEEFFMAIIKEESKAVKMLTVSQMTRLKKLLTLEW

T4: Zip3iTurboID (S. cerevisiae) (UniProt Q06032)
T4 sequence: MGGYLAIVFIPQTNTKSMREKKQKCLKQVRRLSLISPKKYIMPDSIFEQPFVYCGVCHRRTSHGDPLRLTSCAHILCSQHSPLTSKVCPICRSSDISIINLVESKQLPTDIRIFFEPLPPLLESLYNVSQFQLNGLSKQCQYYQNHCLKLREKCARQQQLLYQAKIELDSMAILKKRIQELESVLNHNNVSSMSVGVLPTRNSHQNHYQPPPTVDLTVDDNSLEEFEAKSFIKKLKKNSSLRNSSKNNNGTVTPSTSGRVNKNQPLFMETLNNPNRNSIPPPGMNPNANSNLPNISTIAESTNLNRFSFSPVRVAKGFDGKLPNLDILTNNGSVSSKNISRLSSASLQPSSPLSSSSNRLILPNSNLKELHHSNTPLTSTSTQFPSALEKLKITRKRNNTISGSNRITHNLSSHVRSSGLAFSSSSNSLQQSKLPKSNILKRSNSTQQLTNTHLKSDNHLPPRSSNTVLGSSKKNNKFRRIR

T5: Ecm11-TurboID (S. cerevisiae) (UniProt Q04110)
T5 sequence: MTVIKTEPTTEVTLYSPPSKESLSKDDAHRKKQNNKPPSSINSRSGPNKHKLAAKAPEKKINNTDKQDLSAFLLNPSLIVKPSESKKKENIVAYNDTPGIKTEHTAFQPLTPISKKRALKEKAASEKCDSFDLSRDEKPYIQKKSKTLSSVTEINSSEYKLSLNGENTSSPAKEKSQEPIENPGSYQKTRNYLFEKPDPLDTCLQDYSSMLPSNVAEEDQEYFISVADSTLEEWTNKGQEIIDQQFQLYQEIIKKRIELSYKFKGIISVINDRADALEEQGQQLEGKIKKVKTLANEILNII

B1: Ecm11 (protein, UniProt Q04110 1-302)
chain: T5 sequence

How the values were obtained:
[1] = target: T1, Mlh3-TurboID (S. cerevisiae); assay: proximity labelling; eleven TurboID fusion strains (ndt80, homozygous) and a no-TurboID control, ~24 h sporulation, two replicates; TCA extract, streptavidin-sepharose pull-down, trypsin, UPLC-MS/MS; targets = in both replicates and in neither control
[2] = target: T2, Spo16-TurboID (S. cerevisiae); assay: as above
[3] = target: T3, Zip2-TurboID (S. cerevisiae); assay: as above
[4] = target: T4, Zip3iTurboID (S. cerevisiae); assay: as above
[5] = target: T5, Ecm11-TurboID (S. cerevisiae); assay: proximity labelling; TurboID fusion allele (homozygous, or heterozygous where said) in ndt80 diploid cells, 24 h in sporulation medium, endogenous biotin; TCA extract, 8% or 12% SDS-PAGE, streptavidin:HRP blot; also done in mutant backgrounds in which the labelling was kept

Molecule	binding [1]	binding [2]	binding [3]	binding [4]	binding [5]
Zip4 (S. cerevisiae)	no binding	no binding	no binding	no binding	
B1					binds
